# Primary screen of a compound library

The values are deposited in ChEMBL (CHEMBL3988442, “University of Dundee, Small-Polar-MMV Screening Library” (2021)).

A: 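Whole-cell assay for inhibitors of Mycobacterium tuberculosis growth, labelled Cornell in the record; the read-out is not stated. The concentration is filed as 10 mM, unlikely as a test dose, so the dose is not known. Higher means stronger inhibition (inferred from two other growth screens of the library). Of about 53,000 compounds tested this way, about 900 (1.7%) reached 50% or more in at least one test.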
B: 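Assay on Mycobacterium tuberculosis, filed only as a heat shock assay from Cornell; the read-out is not stated. The concentration is filed as 10 mM, unlikely as a test dose, so the dose is not known. The record gives no direction; compounds that gave an IC50 in retests scored well above the rest, so higher reads as stronger inhibition. About 69,000 compounds were tested under these conditions; 1.4% (about 930) showed 50% or more at least once.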

Values are the deposited “Percent Effect”, in %.
How 0% and 100% were set is not recorded. Most values in the screen are low, and negative values occur.
Compounds were drawn at random from those tested, without regard to their results.

{"compound": "Cc1ccc(N2CCC(C(O)c3cccs3)CC2)nn1", "stereo": "stereo not given", "A": 34.15, "B": -3.077}
{"compound": "CCCN(CCO)C(=O)c1cc(COc2ccc3c(c2)CCCC3)on1", "A": -1.602, "B": -56.93}
{"compound": "Nc1nccnc1C1CN(Cc2ccc(OCC(=O)O)cc2)CCO1", "stereo": "stereo not given", "A": 6.767, "B": -7.334}
{"compound": "CC(C)(NC(=O)Cc1ccccc1F)C(=O)O", "A": 3.515, "B": 13.4}
{"compound": "O=C1CCNc2cc3c(cc2CN1CC1CC1)OCO3", "A": -9.17, "B": -4.919}
{"compound": "CC(C(=O)N1CCOCC1)n1nc(-c2cccs2)cc(N)c1=O", "stereo": "stereo not given", "A": 15.93, "B": 13.07}
{"compound": "Cc1nc(Nc2nnc(C)s2)cc(C2CCCN2C(C)C)n1", "stereo": "stereo not given", "A": -34.53, "B": -23.93}
{"compound": "CN1CCN(CC(=O)NCc2ccco2)Cc2ccccc21", "B": 8.203}
{"compound": "COc1ccc(N2CCN(C(=O)CCCc3cn[nH]c3)CC2=O)cc1", "A": 7.495, "B": -5.916}
{"compound": "CC(=O)Nc1nc(CN2CCOC(Cn3nc(C)cc3C)C2)cs1", "stereo": "stereo not given", "B": -30.13}
{"compound": "Cn1c(Cn2ncc(N3CCCC3)cc2=O)nc2ccccc21", "B": -11.95}
{"compound": "COc1ncccc1C(=O)N1CCCC1c1c(C)nn(C)c1Cl", "stereo": "stereo not given", "B": 10.96}
{"compound": "CCOc1ccc(C#N)cc1NCC(=O)OC", "A": 17.44, "B": -1.621}
{"compound": "O=C(O)C(F)(F)F.[H][C@@]12CN(C(=O)Cc3cccs3)C[C@]1([H])OCCN2CC1CCCC1", "A": 33.32, "B": -20.9}
{"compound": "Cc1nc(NC(=O)N(C)Cc2ccsc2)nn1C", "A": 2.241, "B": -0.7897}
{"compound": "Cc1cnn(CC2CCCCN2CCS(C)(=O)=O)c1", "stereo": "stereo not given", "A": 3.763, "B": -16.37}
{"compound": "CN(C)C(=O)CN1CCc2onc(-c3ccccc3F)c2C1", "A": -2.549, "B": 3.471}
{"compound": "CN(CC1(O)CCCN(c2ccccn2)C1)C(=O)CCc1cccs1", "stereo": "stereo not given", "A": -14.16, "B": -5.703}
{"compound": "O=C(O)C(F)(F)F.[H][C@]12CC[C@@]3(N=C(C)N(CC(C)C)C3=O)[C@@]1([H])CN(CC(C)C)C2", "A": 4.489, "B": -18.86}
{"compound": "CN(Cc1nc(C2CC2)no1)C(=O)C1COc2ccccc2C1", "stereo": "stereo not given", "A": 21.46, "B": 19.12}
{"compound": "COc1ccc(CCC(=O)Nc2ccncc2C)cc1", "B": -18.03}
{"compound": "O=C(O)CC(O)(CC(=O)O)C(=O)O.[H][C@@]12CC[C@@](O)(c3ncccc3C)[C@]1([H])CN(Cc1cccc(Cl)c1Cl)C2", "A": 16.81, "B": -10.11}
{"compound": "CCNC(=O)N1CCCC(C(=O)c2cccc(OC(C)C)c2)C1", "stereo": "stereo not given", "A": 9.279, "B": -1.474}
{"compound": "CSc1cccc(NC(=O)N2CCC3(CCC(=O)N(C4CC4)C3)CC2)c1", "A": 18.33, "B": -34.21}
{"compound": "[H][C@@]12CCN(Cc3cc(C)on3)C[C@@]1([H])O[C@H](c1nc(C)cs1)C2", "A": 1.99, "B": 36.88}
{"compound": "CCc1nc(CC)n(CC(=O)N(CC)CC)n1", "A": -32.49, "B": -25.37}
{"compound": "Cc1nnc(NCC2(c3ccccc3)CC2)c(C#N)c1C", "B": 5.531}
{"compound": "CCC(O)CN1CCN(C(=O)c2cnc3n[nH]c(C)c3c2)CC1", "stereo": "stereo not given", "A": 0.1788, "B": -5.155}
{"compound": "COC(=O)c1cccc(NC(=O)CN2CCN(S(C)(=O)=O)CC2)c1", "A": -7.997, "B": -1.467}
{"compound": "CCn1nnc2c1CCN(C(=O)c1ccc3c(c1)OCO3)C2COC", "stereo": "stereo not given", "A": -8.004, "B": -15.84}